Results are given in words; binding and its absence hold for the method and conditions named. For some of these results: Binding can be weak; no strength is given. For some of these results: Tags and fused reporters may be left off the sequences shown. For some of these results: In cells and extracts the contact can be indirect.
Key:
[1] = biological target: T1, RFP-Caprin2(245–1128) (human (HeLa cell cDNA library)) (UniProt Q6IMN6); experiment: co-IP; HEK 293T co-transfected for 24 h; lysis in 20 mM Tris-HCl, 130 mM NaCl, 10% glycerol, 1% Triton X-100, 2 mM EDTA; rabbit anti-RFP antibodies on protein G Sepharose, overnight 4°C; blot with anti-Cpn1027
T1 sequence: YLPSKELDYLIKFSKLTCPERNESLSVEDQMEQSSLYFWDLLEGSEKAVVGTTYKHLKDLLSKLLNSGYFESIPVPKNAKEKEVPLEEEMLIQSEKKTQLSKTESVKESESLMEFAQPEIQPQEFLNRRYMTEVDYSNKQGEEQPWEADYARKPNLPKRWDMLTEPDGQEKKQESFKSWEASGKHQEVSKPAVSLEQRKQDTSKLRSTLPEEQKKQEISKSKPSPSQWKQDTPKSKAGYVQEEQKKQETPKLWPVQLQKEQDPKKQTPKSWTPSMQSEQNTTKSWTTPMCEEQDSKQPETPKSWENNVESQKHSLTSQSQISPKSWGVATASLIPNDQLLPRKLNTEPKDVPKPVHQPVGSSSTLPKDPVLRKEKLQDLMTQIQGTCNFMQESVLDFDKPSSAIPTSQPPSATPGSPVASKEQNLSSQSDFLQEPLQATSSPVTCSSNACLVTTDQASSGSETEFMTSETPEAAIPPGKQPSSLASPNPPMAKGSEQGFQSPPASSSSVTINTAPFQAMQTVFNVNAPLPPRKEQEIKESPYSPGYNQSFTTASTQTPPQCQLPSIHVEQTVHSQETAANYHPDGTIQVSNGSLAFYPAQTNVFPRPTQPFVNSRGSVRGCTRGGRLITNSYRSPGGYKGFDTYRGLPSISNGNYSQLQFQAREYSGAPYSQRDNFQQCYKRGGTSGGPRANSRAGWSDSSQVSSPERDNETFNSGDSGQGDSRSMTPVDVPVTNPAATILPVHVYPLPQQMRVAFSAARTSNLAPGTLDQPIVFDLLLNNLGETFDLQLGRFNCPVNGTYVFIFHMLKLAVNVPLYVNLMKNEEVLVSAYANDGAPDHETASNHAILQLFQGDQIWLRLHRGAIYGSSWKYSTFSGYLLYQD

[2] = biological target: T2, GST-Caprin2(245–1128) (human (HeLa cell cDNA library)) (UniProt Q6IMN6); experiment: pull-down; GST fusion immobilised on glutathione-agarose beads, incubated overnight at 4°C with lysates of transfected HEK 293T cells (1% Triton X-100 buffer); washed three times with PBS; Western blot; only the target purified
T2 sequence: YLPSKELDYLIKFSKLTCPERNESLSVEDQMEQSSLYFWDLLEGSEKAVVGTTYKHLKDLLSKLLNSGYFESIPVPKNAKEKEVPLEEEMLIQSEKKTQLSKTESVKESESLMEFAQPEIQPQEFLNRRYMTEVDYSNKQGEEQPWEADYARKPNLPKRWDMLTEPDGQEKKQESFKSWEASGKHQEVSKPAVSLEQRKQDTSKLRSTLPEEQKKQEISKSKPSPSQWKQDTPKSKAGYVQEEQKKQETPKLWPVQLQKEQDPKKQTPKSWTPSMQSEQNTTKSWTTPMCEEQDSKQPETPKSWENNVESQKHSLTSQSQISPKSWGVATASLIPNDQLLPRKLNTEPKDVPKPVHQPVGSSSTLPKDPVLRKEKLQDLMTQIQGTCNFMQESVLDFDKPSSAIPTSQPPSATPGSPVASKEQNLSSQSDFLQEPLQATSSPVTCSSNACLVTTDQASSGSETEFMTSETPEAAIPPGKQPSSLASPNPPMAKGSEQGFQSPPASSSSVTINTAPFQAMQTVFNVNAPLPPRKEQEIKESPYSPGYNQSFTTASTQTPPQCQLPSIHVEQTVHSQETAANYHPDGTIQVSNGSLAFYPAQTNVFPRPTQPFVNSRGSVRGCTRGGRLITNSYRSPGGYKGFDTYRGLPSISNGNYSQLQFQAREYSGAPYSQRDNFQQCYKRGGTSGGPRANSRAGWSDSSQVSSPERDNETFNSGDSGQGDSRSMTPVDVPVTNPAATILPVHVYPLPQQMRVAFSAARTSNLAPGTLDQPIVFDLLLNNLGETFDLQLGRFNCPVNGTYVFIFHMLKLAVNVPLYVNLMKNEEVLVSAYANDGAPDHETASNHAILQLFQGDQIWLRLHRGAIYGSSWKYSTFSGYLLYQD

[3] = biological target: T3, GST-Caprin2(245–905) (human (HeLa cell cDNA library)) (UniProt Q6IMN6); experiment: ELISA; GST fusions from bacterial lysates immobilised on glutathione-coated 96-well plates, washed and blocked; 1 μg purified Cpn1027(210–527) per well; detected with anti-Cpn1027 mAb IE6 and HRP anti-mouse IgG, OD 405 nm; both purified
T3 sequence: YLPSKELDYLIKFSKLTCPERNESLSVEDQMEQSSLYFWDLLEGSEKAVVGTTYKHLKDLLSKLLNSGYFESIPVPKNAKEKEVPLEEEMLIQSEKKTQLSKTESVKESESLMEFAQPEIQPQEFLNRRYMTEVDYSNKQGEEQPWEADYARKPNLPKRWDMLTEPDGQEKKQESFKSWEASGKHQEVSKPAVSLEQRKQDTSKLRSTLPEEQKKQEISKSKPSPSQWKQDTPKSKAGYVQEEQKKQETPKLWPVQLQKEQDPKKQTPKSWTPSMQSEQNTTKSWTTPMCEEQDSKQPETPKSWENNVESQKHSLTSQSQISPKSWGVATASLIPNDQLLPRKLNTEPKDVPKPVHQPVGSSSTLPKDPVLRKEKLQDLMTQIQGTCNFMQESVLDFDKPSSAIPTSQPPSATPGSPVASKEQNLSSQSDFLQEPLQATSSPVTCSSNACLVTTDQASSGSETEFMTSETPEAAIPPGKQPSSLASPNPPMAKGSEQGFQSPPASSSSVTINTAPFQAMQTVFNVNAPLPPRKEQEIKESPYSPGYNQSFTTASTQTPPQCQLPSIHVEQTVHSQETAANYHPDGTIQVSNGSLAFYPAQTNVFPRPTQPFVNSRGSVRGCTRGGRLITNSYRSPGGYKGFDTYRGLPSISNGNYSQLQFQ

[4] = biological target: T2, GST-Caprin2(245–1128) (human (HeLa cell cDNA library)); experiment: as above
[5] = biological target: T4, GST-Caprin2(927–1128) (human (HeLa cell cDNA library)) (UniProt Q6IMN6); experiment: as above
T4 sequence: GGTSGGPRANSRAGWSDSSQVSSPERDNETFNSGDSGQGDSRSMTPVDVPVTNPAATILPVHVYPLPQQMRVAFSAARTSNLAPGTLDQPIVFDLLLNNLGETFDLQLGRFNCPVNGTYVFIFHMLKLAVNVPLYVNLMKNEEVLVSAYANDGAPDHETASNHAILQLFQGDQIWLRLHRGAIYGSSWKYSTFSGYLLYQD

[6] = biological target: Gal4DB-Cpn1027(210–527) (Chlamydia pneumoniae AR39); experiment: two-hybrid; ProQuest system, MaV203 yeast; bait in pDBLeu (GAL4 DBD), prey in pEXP-AD502 (GAL4 AD); growth on -LW, -LWH with 50 mM 3AT, and -LWU
[7] = biological target: GST-Cpn1027(210–527) (Chlamydia pneumoniae AR39); experiment: pull-down; GST fusion immobilised on glutathione-agarose beads, incubated overnight at 4°C with lysates of transfected HEK 293T cells (1% Triton X-100 buffer); washed three times with PBS; Western blot; only the target purified
[8] = biological target: GST-Cpn1027(1–209) (Chlamydia pneumoniae AR39); experiment: as above
[9] = biological target: GST-Cpn1027(366–527) (Chlamydia pneumoniae AR39); experiment: as above
[10] = biological target: GST-Cpn1027(210–365) (Chlamydia pneumoniae AR39); experiment: as above

FLAG-Cpn1027(210–527) (Chlamydia pneumoniae AR39) (domain or fragment)
binding [1]: binds

RFP-Cpn1027 (Chlamydia pneumoniae AR39)
binding [2]: binds

purified Cpn1027(210–527) protein (no GST tag) (Chlamydia pneumoniae AR39) (domain or fragment)
binding [3]: no binding (tested: 1 μg per well) | binding [4]: binds | binding [5]: binds

B1: Gal4AD-Caprin2(245–1128) (domain or fragment, UniProt Q6IMN6 245-1127)
chain: YLPSKELDYLIKFSKLTCPERNESLSVEDQMEQSSLYFWDLLEGSEKAVVGTTYKHLKDLLSKLLNSGYFESIPVPKNAKEKEVPLEEEMLIQSEKKTQLSKTESVKESESLMEFAQPEIQPQEFLNRRYMTEVDYSNKQGEEQPWEADYARKPNLPKRWDMLTEPDGQEKKQESFKSWEASGKHQEVSKPAVSLEQRKQDTSKLRSTLPEEQKKQEISKSKPSPSQWKQDTPKSKAGYVQEEQKKQETPKLWPVQLQKEQDPKKQTPKSWTPSMQSEQNTTKSWTTPMCEEQDSKQPETPKSWENNVESQKHSLTSQSQISPKSWGVATASLIPNDQLLPRKLNTEPKDVPKPVHQPVGSSSTLPKDPVLRKEKLQDLMTQIQGTCNFMQESVLDFDKPSSAIPTSQPPSATPGSPVASKEQNLSSQSDFLQEPLQATSSPVTCSSNACLVTTDQASSGSETEFMTSETPEAAIPPGKQPSSLASPNPPMAKGSEQGFQSPPASSSSVTINTAPFQAMQTVFNVNAPLPPRKEQEIKESPYSPGYNQSFTTASTQTPPQCQLPSIHVEQTVHSQETAANYHPDGTIQVSNGSLAFYPAQTNVFPRPTQPFVNSRGSVRGCTRGGRLITNSYRSPGGYKGFDTYRGLPSISNGNYSQLQFQAREYSGAPYSQRDNFQQCYKRGGTSGGPRANSRAGWSDSSQVSSPERDNETFNSGDSGQGDSRSMTPVDVPVTNPAATILPVHVYPLPQQMRVAFSAARTSNLAPGTLDQPIVFDLLLNNLGETFDLQLGRFNCPVNGTYVFIFHMLKLAVNVPLYVNLMKNEEVLVSAYANDGAPDHETASNHAILQLFQGDQIWLRLHRGAIYGSSWKYSTFSGYLLYQD
binding [6]: binds

B2: RFP-Caprin2(245–1128) (domain or fragment, UniProt Q6IMN6 245-1127)
chain: YLPSKELDYLIKFSKLTCPERNESLSVEDQMEQSSLYFWDLLEGSEKAVVGTTYKHLKDLLSKLLNSGYFESIPVPKNAKEKEVPLEEEMLIQSEKKTQLSKTESVKESESLMEFAQPEIQPQEFLNRRYMTEVDYSNKQGEEQPWEADYARKPNLPKRWDMLTEPDGQEKKQESFKSWEASGKHQEVSKPAVSLEQRKQDTSKLRSTLPEEQKKQEISKSKPSPSQWKQDTPKSKAGYVQEEQKKQETPKLWPVQLQKEQDPKKQTPKSWTPSMQSEQNTTKSWTTPMCEEQDSKQPETPKSWENNVESQKHSLTSQSQISPKSWGVATASLIPNDQLLPRKLNTEPKDVPKPVHQPVGSSSTLPKDPVLRKEKLQDLMTQIQGTCNFMQESVLDFDKPSSAIPTSQPPSATPGSPVASKEQNLSSQSDFLQEPLQATSSPVTCSSNACLVTTDQASSGSETEFMTSETPEAAIPPGKQPSSLASPNPPMAKGSEQGFQSPPASSSSVTINTAPFQAMQTVFNVNAPLPPRKEQEIKESPYSPGYNQSFTTASTQTPPQCQLPSIHVEQTVHSQETAANYHPDGTIQVSNGSLAFYPAQTNVFPRPTQPFVNSRGSVRGCTRGGRLITNSYRSPGGYKGFDTYRGLPSISNGNYSQLQFQAREYSGAPYSQRDNFQQCYKRGGTSGGPRANSRAGWSDSSQVSSPERDNETFNSGDSGQGDSRSMTPVDVPVTNPAATILPVHVYPLPQQMRVAFSAARTSNLAPGTLDQPIVFDLLLNNLGETFDLQLGRFNCPVNGTYVFIFHMLKLAVNVPLYVNLMKNEEVLVSAYANDGAPDHETASNHAILQLFQGDQIWLRLHRGAIYGSSWKYSTFSGYLLYQD
binding [7]: binds | binding [8]: no binding | binding [9]: binds | binding [10]: no binding

Reference: article PMC4440618
